Reference: patent US20170304223A1, “METHOD OF TREATING PROSTATE CANCER USING A PKC INHIBITOR” (priority 2016, published 2017)
Some results were stated once for a whole list of compounds, not compound by compound. At least one structure is not confirmed: it was looked up by name or label, or the drawing left a doubt.

How the values were obtained:
RWPE cells = test: Cell proliferation assay / cell counting, RWPE cells; format: cell-based, human
Protocol: RWPE epithelial cells and DU-145 human prostate carcinoma cells were purchased from American Type Culture Collection (ATCC). PC-3 cells were acquired from Moffit Cancer center. The cells were grown as a monolayer in a T25 tissue culture flask with 5 mL of growth medium and maintained in a 37 C incubator with 5% CO2. The E-MEM and F-12 growth media were obtained from ATCC. The medium was supplemented with 10% fetal bovine serum (FBS) and a mix of the antibiotics Penicillin (10,000 IU) and Streptomycin (10,000 μg/ml) in a 100× concentration which was purchased from Corning.
RWPE, DU 145 and PC-3 cells were cultured in a T25 cell culture flasks. 20,000 cells were seeded into each. […] The treatment was repeated over the course of 72 hours and samples were taken at 24 hour intervals.
RWPE, DU 145, and PC-3 cells were cultured in a T25 cell culture flasks. At assigned intervals the cells were trypsonized and put into a 1.5 mL microcentrifuge tube. Cells were inverted gently to keep the solution homogeneous and then the Cell Scepter by Millipore was used to measure cell numbers.

PKC-τ = molecular target: T1, PKC-τ (Homo sapiens, UniProt P41743); test: PKC-iota levels in prostate cells by Western blot after treatment; format: cell-based; conditions: RWPE cells, 72 hours after treatment
T1 construct: endogenous in cells; host or cells: DU-145
T1 sequence (P41743 1-596): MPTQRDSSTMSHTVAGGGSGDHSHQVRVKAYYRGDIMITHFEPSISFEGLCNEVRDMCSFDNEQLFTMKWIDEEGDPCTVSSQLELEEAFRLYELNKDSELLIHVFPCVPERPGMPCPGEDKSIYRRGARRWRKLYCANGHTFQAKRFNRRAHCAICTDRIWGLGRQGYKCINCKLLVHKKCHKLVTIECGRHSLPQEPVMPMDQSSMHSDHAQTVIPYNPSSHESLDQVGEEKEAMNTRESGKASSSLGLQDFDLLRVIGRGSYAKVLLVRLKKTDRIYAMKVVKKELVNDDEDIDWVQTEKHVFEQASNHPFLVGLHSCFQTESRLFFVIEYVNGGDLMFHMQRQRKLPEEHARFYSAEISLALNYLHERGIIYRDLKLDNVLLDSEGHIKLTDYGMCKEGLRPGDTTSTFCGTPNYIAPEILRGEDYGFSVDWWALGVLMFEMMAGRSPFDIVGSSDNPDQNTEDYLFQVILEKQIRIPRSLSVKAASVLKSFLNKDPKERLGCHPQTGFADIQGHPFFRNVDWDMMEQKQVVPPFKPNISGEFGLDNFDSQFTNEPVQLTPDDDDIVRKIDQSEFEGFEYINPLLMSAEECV
Protocol: Protein was harvested from cultured cells using Lysis Buffer purchased from Cell Signaling. Protein content was measured according to the Bradford method. Tissue extracts containing equal amounts of protein in each lane were run on SDS-PAGE gels. The tissue lysates (50 μg) were Western blotted for PKC-τ (10 μg, 1:2500 dilution): and PKC-ζ (5 μg, 1:4000 dilution) and β-actin (10 μg, 1:3000 dilution).
Western blots were developed on the Protein Simple Flour Chem M. Accompanied by the Alpha view software for analysis.
ICA-1 was used as a PKC-iota inhibitor. […] The cells were counted before and after the treatments and a statistical analysis was performed. Following cell counting, the cells were lysed and levels of PKC-iota and PKC-zeta were measured by Western blotting and immunoprecipitation.

NC(=O)c1ncn([C@H]2C[C@@H](COP(=O)(O)O)[C@H](O)[C@@H]2O)c1N [ICA-1]
cell population retained relative to untreated cells (RWPE cells): over 90%
reduction of PKC-τ levels (PKC-τ): ≤ 10%
